Laboratory results reported in patent US20200384066A1.
These are yes or no findings as the source states them, for the method shown. Some entries that bind do so weakly or less than the wild type.

By UniProt entry, the sequences of proteins in these tests, tags left out. Residues count along the entry.
UniProt P03950, residues 25-147: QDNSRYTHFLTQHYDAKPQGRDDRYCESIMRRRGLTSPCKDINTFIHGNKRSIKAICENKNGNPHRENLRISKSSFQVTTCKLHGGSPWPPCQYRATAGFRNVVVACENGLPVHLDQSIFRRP

Legend:
angiogenin [1] = molecular target: angiogenin (UniProt P03950); assay: phage ELISA on coated angiogenin
angiogenin [2] = molecular target: angiogenin (UniProt P03950); assay: phage ELISA on coated angiogenin (FIG. 3)
angiogenin [3] = molecular target: angiogenin (UniProt P03950); assay: biopanning of the Ph.D.-12 library on coated angiogenin; clone frequency (11 of 57) and RELIC/INFO analysis

Measured: binding

WPYWNHHSHNNV (peptide, not shown: large carriers) [WV peptide-bearing phage]
binds: all assays above
